Reference: paper PMC7819943, “Rice protein-binding microarrays: a tool to detect cis-acting elements near promoter regions in rice”
The other results are listed elsewhere or left out.

target: T1, OsSMF1 (Oryza sativa, UniProt Q6ZLB0 1-436); assay: protein-binding microarray (RPBM); PBS, 2% BSA, 51.3 ng/ul salmon testes DNA, 50 uM zinc acetate, 200 nM TF, 25 C, 1 h; high values mean tight binding; conditions: protein: recombinant; tags: N-terminal polyhistidine and DsRed monomer fusion (pET32a); chain copies: 2; label: CyDye5-dUTP incorporated in the synthesized complementary strand; 3' TTTTT single-stranded linker to array surface; dsDNA, one strand shown
T1 sequence: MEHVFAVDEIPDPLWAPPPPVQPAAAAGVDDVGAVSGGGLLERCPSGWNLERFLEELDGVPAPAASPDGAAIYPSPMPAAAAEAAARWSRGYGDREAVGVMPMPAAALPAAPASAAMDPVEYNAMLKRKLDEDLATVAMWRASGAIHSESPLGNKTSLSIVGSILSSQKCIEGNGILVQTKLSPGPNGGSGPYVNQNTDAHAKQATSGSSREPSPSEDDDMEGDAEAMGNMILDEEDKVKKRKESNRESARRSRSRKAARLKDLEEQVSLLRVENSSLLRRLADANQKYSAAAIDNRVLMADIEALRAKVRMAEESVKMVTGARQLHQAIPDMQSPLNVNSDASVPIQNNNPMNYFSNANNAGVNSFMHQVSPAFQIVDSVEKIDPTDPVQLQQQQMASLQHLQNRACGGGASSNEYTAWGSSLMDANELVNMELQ
How it was run: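 The binding signal for each feature is its fluorescence intensity in arbitrary units. An Axon 4000B scanner was used to read a custom Agilent array that had been made double-stranded with Cy5-dUTP primer extension, blocked with 2% BSA, incubated at 25 °C for 1 h with 200 nM protein in PBS, 2% BSA, salmon testes DNA and 50 µM zinc acetate, and washed. The protein was an N-terminal polyhistidine–DsRed transcription factor fusion from E. coli BL21-CodonPlus, purified on Ni–NTA.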

Sequence | binding signal
ATCGCGAGATGAATCTTTTGAGCCTATTTAGTCCATGATTCGGAGTCACCTAGTGCAG | 4690 fluorescence intensity (a.u.)
AGTTGGATGGATGGATTTGGATGAATGGATGGGGACAAACCGGAGTCACCTAGTGCAG | 3320 fluorescence intensity (a.u.)
TCCATGATTAGTCATAAAGTGTTACAGTAATCTACATGTGCGGAGTCACCTAGTGCAG | 3670 fluorescence intensity (a.u.)
TTTTGAACATTGCGTCATACATTAATACCTACATATTTCACGGAGTCACCTAGTGCAG | 6960 fluorescence intensity (a.u.)
TTCATTACTGGAGAGATATGCATCATCAGTGGAAGCTTATCGGAGTCACCTAGTGCAG | 3340 fluorescence intensity (a.u.)
GTCCGCCACGTGTCGCGTGGCCCACCGTGGCCCTCATGGGCGGAGTCACCTAGTGCAG | 37400 fluorescence intensity (a.u.)
CATCTTACATCTTGATCACTCAGTAAGTTCTCCCATGTATCGGAGTCACCTAGTGCAG | 33300 fluorescence intensity (a.u.)
AGTCAATTATATGGGTATGGGTACACGTTACCCGCGTGGGCGGAGTCACCTAGTGCAG | 4420 fluorescence intensity (a.u.)
TAGGTTCACCAAGCTTCCTGATGATGTCTTGCTCAACATCCGGAGTCACCTAGTGCAG | 3440 fluorescence intensity (a.u.)
GCTTTTACCGTTTCATGTCACACTTGTGTAGCTGTATTTTCGGAGTCACCTAGTGCAG | 3320 fluorescence intensity (a.u.)
CTATATCCGTCGCCTCTTGGCGGATGTGCGGGATTCTGCGCGGAGTCACCTAGTGCAG | 3150 fluorescence intensity (a.u.)
CGGGTAGGCGAACACGTCGCTGACGCCGCACCGCTCCAGCCGGAGTCACCTAGTGCAG | 6760 fluorescence intensity (a.u.)
ACCACAATCCACCCCTTGTCTGAGTCAGTGGTTGGTCATCCGGAGTCACCTAGTGCAG | 5570 fluorescence intensity (a.u.)
CAGTTCCGATTGACAAGTCACGTTGACAATTCAAGTCAGACGGAGTCACCTAGTGCAG | 3940 fluorescence intensity (a.u.)
ATGAGCTCGTGCGTTGCTGATGGCGTCAGGACGATACCAGCGGAGTCACCTAGTGCAG | 4660 fluorescence intensity (a.u.)
GCTACTACGAAGGCGTAAACGTAATCGCCTCTCACGTCAGCGGAGTCACCTAGTGCAG | 3550 fluorescence intensity (a.u.)
TGGGAGGCAGCAGCCCGGCGGTGGTGGCGGATTGGCCGGGCGGAGTCACCTAGTGCAG | 4000 fluorescence intensity (a.u.)
CCGCGTCCGCGTCCCCGCCGACCTGCGCCACGCGCGCTACCGGAGTCACCTAGTGCAG | 3720 fluorescence intensity (a.u.)
AAGAGCCGAATCGAAGGCATCAGCACAATGGATGCCGACGCGGAGTCACCTAGTGCAG | 3440 fluorescence intensity (a.u.)
ACACAAGGGGAACGGGATAAAATTTATGGGCACGTAAGGGCGGAGTCACCTAGTGCAG | 3480 fluorescence intensity (a.u.)
GCTGACGTGTACAGAGCATGCCAGCTCAGCATCCACGTCACGGAGTCACCTAGTGCAG | 34100 fluorescence intensity (a.u.)

Sequence | binding signal
AACCAACTCTATCAGCGACACGCAACCTGATCGATTCCCCCGGAGTCACCTAGTGCAG | 4110 fluorescence intensity (a.u.)
GGATACTAAGGCCATCCCCAACCCTCCATGTCATCTAGTTCGGAGTCACCTAGTGCAG | 3200 fluorescence intensity (a.u.)
TACTCTGCCAATCTAAATTAATGATGTATGATATGGTCTCCGGAGTCACCTAGTGCAG | 4340 fluorescence intensity (a.u.)
AGCGGCCCGAACCTATATAATCCCCTGTTCTCGTACACAACGGAGTCACCTAGTGCAG | 8800 fluorescence intensity (a.u.)
GCAACTAGCGCTGGCCGGTGTCCACCACTGCTAGTCTCTGCGGAGTCACCTAGTGCAG | 31800 fluorescence intensity (a.u.)
ATTGAAGTAGTTACTGTTAATCGTGGCATAGTTGGCAACGCGGAGTCACCTAGTGCAG | 4040 fluorescence intensity (a.u.)
CCCTTCCTTCCTTCCTTTGCATCATCATCATCAACCCAATCGGAGTCACCTAGTGCAG | 4440 fluorescence intensity (a.u.)
GGTATCTGATTTTGCGGAAGAAGTGTCATCTGGGGTAAATCGGAGTCACCTAGTGCAG | 3990 fluorescence intensity (a.u.)
ATCTGTTAGGTATTTAATTTATTTTCTTTTGCTATGTCAGCGGAGTCACCTAGTGCAG | 3880 fluorescence intensity (a.u.)
GCGAGCTGAAGAGGAGGAGGGGAGTGGAGGAGGCGGCGCTCGGAGTCACCTAGTGCAG | 3530 fluorescence intensity (a.u.)
TTTGAACTATATATATCCGTGTCTGGTCATCTGGTGACATCGGAGTCACCTAGTGCAG | 4590 fluorescence intensity (a.u.)
ATTCGTTATACACTGACAAGTCATATCATGTAATAGGTTGCGGAGTCACCTAGTGCAG | 4270 fluorescence intensity (a.u.)
TACAGAAGAATCCTCGCTTCTGTTTGTTATTCCACGCTTCCGGAGTCACCTAGTGCAG | 3530 fluorescence intensity (a.u.)
CATCATCTCCCCTTGTTGACTCACAATAACACAAACCCATCGGAGTCACCTAGTGCAG | 5390 fluorescence intensity (a.u.)
GCTAGCGTACGCATACATCAGCTTGTTAACACTTGTTGATCGGAGTCACCTAGTGCAG | 23000 fluorescence intensity (a.u.)
AGACCGCACGTGACACTGCAGCTGGGACCCACCATTTCCCCGGAGTCACCTAGTGCAG | 5390 fluorescence intensity (a.u.)
ACGGACTCATAACAGTCACTGCTGACGTAAGCCACACACACGGAGTCACCTAGTGCAG | 12200 fluorescence intensity (a.u.)
ATCACATCGTTCCAATTTTGACGTGAACTAAACACAACCTCGGAGTCACCTAGTGCAG | 3860 fluorescence intensity (a.u.)
GGTGGGTGCAGAGGATGAAGGACGTAAGGGTGGATTGTCGCGGAGTCACCTAGTGCAG | 3500 fluorescence intensity (a.u.)
CTTCGACGTGAATGGCCAATCAAAAGTTAATCCCACTTAACGGAGTCACCTAGTGCAG | 7980 fluorescence intensity (a.u.)
GGCCGAGCCGCCCGTTTCGTTCTATCAGACTCTTCTTTATCGGAGTCACCTAGTGCAG | 3200 fluorescence intensity (a.u.)
